Assay results as given in PubChem BioAssay AID651660 (Broad Institute, 2012).
Screen size: about 1,900 compounds; about 15 (0.8%) were called active.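 How the source made its calls: active means every replicate shows at least 50% inhibition; inconclusive means mean inhibition at least 50% but some replicate below; inactive means the rest.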 This is one part of the list.

Chains of the proteins cited; added tags and fusions are not shown. Lines headed by an entry give the natural chain unless they say otherwise; changes in a name come on top.
UniProt P43351: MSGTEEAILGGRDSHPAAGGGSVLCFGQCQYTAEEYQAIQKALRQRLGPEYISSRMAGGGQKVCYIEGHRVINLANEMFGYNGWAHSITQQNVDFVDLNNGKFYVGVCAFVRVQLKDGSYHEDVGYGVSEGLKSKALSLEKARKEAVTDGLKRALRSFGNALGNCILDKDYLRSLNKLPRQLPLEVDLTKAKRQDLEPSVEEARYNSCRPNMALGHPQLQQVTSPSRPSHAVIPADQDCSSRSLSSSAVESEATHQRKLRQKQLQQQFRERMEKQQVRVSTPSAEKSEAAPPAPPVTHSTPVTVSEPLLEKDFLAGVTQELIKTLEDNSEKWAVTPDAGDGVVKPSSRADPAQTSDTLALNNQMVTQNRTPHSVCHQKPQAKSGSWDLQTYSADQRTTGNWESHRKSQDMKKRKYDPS

target: DNA repair protein RAD52 homolog (Homo sapiens) (UniProt P43351); assay: RAD52 ssDNA annealing inhibitors, primary screen, biochemical, FRET, single point (AID 651660); conditions: Recombinant RAD52 ssDNA annealing, FRET fluorescence, 30 min; at 18.7 µM; active compounds read high;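 further: 0% = median of neutral control wells and 100% = median of positive control wells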

| SMILES | inhibition |
| --- | --- |
| COc1cc(CNc2nnnn2C)ccc1OCc1ccc(F)cc1Cl | inactive: 9.16% |
| CCc1cc2c(C)cc(=O)oc2cc1OC(=O)C1CCCN1C(=O)OC(C)(C)C (stereo unspecified) | inactive: -5.17% |
| O=C(COc1ccc2c(-c3ccccc3)cc(=O)oc2c1)NCc1cccs1 | inactive: -4.65% |
| O=c1cc(-c2ccccc2)oc2cc(OCc3ccccc3)cc(O)c12 | inactive: -13.9% |
| C/C(=N\N=C1\NC(=O)C(CC(=O)Nc2ccc(Cl)cc2)S1)c1ccco1 (stereo unspecified) | inactive: -15.6% |
| CC(=O)Nc1ccc2[nH]c(C)c(CC=C(Cl)Cl)c(=O)c2c1 | inactive: 6.74% |
| CC(=O)OCC#CCSc1nc2ccccc2n1C | inactive: -0.59% |
| CCCC(=O)O[C@]1(C(=O)COC(C)=O)CC[C@H]2[C@@H]3C[C@H](F)C4=CC(=O)C=C[C@]4(C)[C@@]3(F)[C@@H](O)C[C@@]21C | inactive: 15.2% |
| O=C(NNC(=O)c1cccs1)c1ccco1 | inactive: 4% |
| O=C(O)c1ccccc1C(=O)OCCCCOC(=O)c1ccccc1C(=O)O | inactive: -2.01% |
| CCn1c(O)c(/C=C2\C=Nc3ccccc32)sc1=O | inactive: 8.58% |
| Nc1ccc(S(=O)(=O)c2ccc(N)cc2)cc1 | inactive: 1.34% |
| OCCN1CCN(CCCN2c3ccccc3Sc3ccc(Cl)cc32)CC1 | active: 73.4% |
| COC(=O)C1=C(C)N(C)C(=S)NC1c1ccc(Cl)cc1 (stereo unspecified) | inactive: -2.19% |
| O=C(c1cccnc1)N1N=C(C2CC2)CC1(O)C(F)(F)F (stereo unspecified) | inactive: -9.45% |
| COCc1cc(=O)[nH]c(Nc2nc3ccccc3o2)n1 | inactive: 6.12% |
| COC(=O)c1ccc(C(=O)OC)c(NC(=O)C(C)C)c1 | inactive: -2.12% |
| O=c1oc2c(CN3CCCCC3)c(O)ccc2c2c1CCCCC2 | inactive: -17.5% |
| CC(=O)[C@@H]1[C@@H](C(=O)c2ccc(C)cc2)[C@]2(C(=O)Nc3ccccc32)[C@H]2C=Cc3cc(F)ccc3N12 | inactive: -108% |
| CC1CCCc2sc3ncn(N)c(=N)c3c21 (stereo unspecified) | inactive: -2.35% |
| COc1ccc2c(c1O)Cc1ccccc1C2=O | inactive: -3.51% |
| COc1cc2nc(N3CCN(C(=O)c4ccco4)CC3)nc(N)c2cc1OC | inactive: 43.3% |
| CCc1cc2c(=O)c(-c3nc4ccccc4n3C)coc2c(CN2CCN(C)CC2)c1O | inactive: -1.25% |
| COc1ccc(OC)c(-n2c(Cn3c(-c4ccccn4)nc4ccccc43)n[nH]c2=S)c1 | inactive: -4.09% |

| SMILES | inhibition |
| --- | --- |
| CC(=O)Oc1ccc(C2OC(=O)c3ccccc3N2C(C)=O)cc1 (stereo unspecified) | inactive: 1.33% |
| CC(=O)N1CC23C=CC(CC2CC12CCCCCC2)O3 (stereo unspecified) | inactive: 2.84% |
| O=C(O)C1[C@H]2C(=O)N(C3CCCC3)C[C@]23C=C[C@H]1O3 (stereo partly specified) | inactive: 8.01% |
| C#CCN(C)Cc1ccccc1 | inactive: -3.73% |
| O=c1c2ccccc2nnn1Cc1cccc2ccccc12 | inactive: 12.3% |
| COc1ccc2cc(CCC(C)=O)ccc2c1 | inactive: 2.8% |
| CC(=O)N(CCC(Cc1ccccc1)c1ccc2c(c1)OCO2)Cc1ccc(Cl)cc1 (stereo unspecified) | inactive: 16.3% |
| CCn1cc(C(=O)O)c(=O)c2ccc(C)nc21 | inactive: -11.8% |
| O=C(O)c1ccccc1OCCOc1ccccc1 | inactive: -5.9% |
| COc1ccc2oc(=O)c(C(=O)Nc3ccccc3-c3ccccc3)cc2c1 | inactive: 13.8% |
| CCN(CC)CCNC(=O)c1cc(S(C)(=O)=O)ccc1OC | inactive: -0.689% |
| CN/C(=C/[N+](=O)[O-])NCCSCc1ccc(CN(C)C)o1 | inactive: -14.2% |
| COc1cc2oc(-c3ccc(O)cc3)cc(=O)c2c(OC)c1O | inactive: 31.7% |
| O=C(CCCN1CC=C(n2c(=O)[nH]c3ccccc32)CC1)c1ccc(F)cc1 | inactive: 2.05% |
| C=CCn1c(SCC(=O)NC2CCCCC2)nc2ccccc2c1=O | inactive: -8.73% |
| CCc1cc2c(=O)c(-c3nc(C)cs3)coc2cc1OC(C)C(=O)NCCO (stereo unspecified) | inactive: -3.26% |
| O=C1CC[C@@H](CN(Cc2ccccc2)Cc2cn[nH]c2-c2cc3ccccc3o2)N1 | inactive: 3.78% |
| O=C(O)c1ccc(C(=O)C(=O)c2ccccc2)cc1 | inactive: -5.42% |
| COc1ccc(CCN2CCC(Nc3nc4ccccc4n3Cc3ccc(F)cc3)CC2)cc1 | inactive: -68.5% |
| Cc1ncc([N+](=O)[O-])n1CCO | inactive: 1.81% |
| O=C(COc1ccc(F)cc1)OCCN1CCOCC1 | inactive: -9.42% |
| CCN(CC)CC#CCOC(=O)C(O)(c1ccccc1)C1CCCCC1 (stereo unspecified) | inactive: 5.52% |
| CCN1CCN(C(=S)c2ccc(OC)cc2)CC1 | inactive: 1.54% |
| O=C1Cc2ccccc2C(c2ccccc2)N1 (stereo unspecified) | inactive: -8.11% |

Reprinted at random: four records from the list, in no set order.

| SMILES | inhibition |
| --- | --- |
| O=C(NNC(=O)c1cccs1)c1ccco1 | inactive: 4% |
| O=C(COc1ccc2c(-c3ccccc3)cc(=O)oc2c1)NCc1cccs1 | inactive: -4.65% |
| O=C(O)c1ccccc1C(=O)OCCCCOC(=O)c1ccccc1C(=O)O | inactive: -2.01% |
| CC(=O)OCC#CCSc1nc2ccccc2n1C | inactive: -0.59% |

Given with tabs: entries from further up.
SMILES	inhibition
O=C(O)c1ccc(C(=O)C(=O)c2ccccc2)cc1	inactive: -5.42%
O=C1Cc2ccccc2C(c2ccccc2)N1 (stereo unspecified)	inactive: -8.11%

Reprinted from above for reference:

| SMILES | inhibition |
| --- | --- |
| CCn1cc(C(=O)O)c(=O)c2ccc(C)nc21 | inactive: -11.8% |
| O=C(O)c1ccccc1OCCOc1ccccc1 | inactive: -5.9% |

The results go on.

| SMILES | inhibition |
| --- | --- |
| O=C(/C=C/c1ccccc1)c1ccccc1 | inactive: -6.91% |
| Cn1cc(CN2CCN(CCO)CC2)c(-c2ccc(Oc3ccccc3)cc2)n1 | inactive: 9.9% |
| Cc1nc(NC(CC(C)C)C(=O)O)c2nc(C)oc2n1 (stereo unspecified) | inactive: -2.86% |
| O=C(Nc1ncc2c(n1)CC(c1ccco1)CC2=O)c1ccco1 (stereo unspecified) | inactive: -27% |
| COC(=O)c1[nH]c2ccc(C)cc2c1NC(=O)CN1CCc2cc(OC)c(OC)cc2C1 | inactive: 1.42% |
| COc1ccc(-c2[nH]ncc2C=O)cc1OC | inactive: 9.17% |
| COc1ccc(-c2noc(-c3ccccc3-c3ccccc3)n2)cc1 | inactive: 2.09% |
| COc1ccc(C2CNC(=O)C2)cc1OC1CCCC1 (stereo unspecified) | inactive: 3.78% |
| COc1cccc2c(=O)c(C/C=C(/C)Cl)c(C)[nH]c12 | inactive: -6.28% |
| CC(C)c1ccc(/C=C/C(=O)O)cc1 | inactive: -7.81% |
| Cc1nc(-c2coc3c(CN(C)C)c(O)ccc3c2=O)cs1 | inactive: 5.53% |
| N#Cc1c2c(c(-c3ccccc3)[nH]c1=O)CCCC2 | inactive: -7.57% |
| Cc1ccc(C(=O)N2CC3(C(C)C)CN(C(=O)c4ccc(C)cc4)CC(C(C)C)(C2)C3=O)cc1 | inactive: 0.667% |
| CCOc1cccc(N2C(=O)CC(N(CCc3ccc(OC)c(OC)c3)C(=O)CC)C2=O)c1 (stereo unspecified) | inactive: -4.04% |
| CCC(=O)O[C@]1(C(=O)CCl)[C@@H](C)C[C@H]2[C@@H]3CCC4=CC(=O)C=C[C@]4(C)[C@@]3(F)[C@@H](O)C[C@@]21C | inactive: 25.4% |
| O=C1OCCN1/N=C/c1ccc([N+](=O)[O-])o1 | inactive: -8.97% |
| COc1ccc(CCN(C)CC(=O)Nc2cc(C)nc3ccccc23)cc1OC | inactive: -1.66% |
| COc1ccc(NC2=C(Cl)C(=O)N(c3ccccc3)C2=O)c(OC)c1 | inactive: 15.8% |
| CCN(CCCCCN(C)C)Cc1cc2ccccc2o1 | inactive: -1.51% |
| COc1ccc(NC(=O)C2CSC3c4ccccc4C(=O)N23)cc1 (stereo unspecified) | inactive: 2.73% |
| CN(C)c1nc(N(C)C)nc(N(C)C)n1 | inactive: 3.34% |
| O=C(CCc1c[nH]c2ccccc12)NCc1ccco1 | inactive: 0.815% |
| COC(=O)CSc1nc2ccc(N)cc2s1 | inactive: 3.86% |
| Cc1ccc2nc(C)c3c(c2c1)OC(C(C)(Cl)Br)C3 (stereo unspecified) | inactive: 3.5% |

| SMILES | inhibition |
| --- | --- |
| Nc1ccc2[nH]ncc2c1 | active: 59.5% |
| NNC(=O)c1cc(O)c(O)c(O)c1 | inactive: 30.2% |
| C=C(C)COc1ccc(-c2nc(N)ncc2-c2ccc(OC)cc2)c(O)c1 | inactive: 22.9% |
| Cc1ccc(S(=O)(=O)N2CCC(C(=O)N[C@@H](C)C(=O)NC3CCS(=O)(=O)C3)CC2)cc1 (stereo partly specified) | inactive: 0.33% |
| O=C(O)c1cc(-c2ccccc2)nc2ccccc12 | inactive: -18.5% |
| CC(=O)O[C@]1(C(C)=O)CC[C@H]2[C@@H]3C[C@H](C)C4=CC(=O)CC[C@]4(C)[C@H]3CC[C@@]21C | inactive: 3.67% |
| C[C@H]1C[C@@H]2[C@H]([C@@H](O)C[C@@]3(C)[C@H]2CC[C@]3(O)C(=O)CO)[C@@]2(C)C=CC(=O)C=C12 | inactive: -9.66% |
| CCOC(=O)N1CCN(Cc2nc(Cc3cccc(F)c3)no2)CC1 | inactive: -2.4% |
| COc1ccc(NC(=O)Nc2ccc(C(C)C)cc2)cc1 | inactive: -5.3% |
| O=C1[C@@H]2[C@H](Cc3ccc(O)cc3)N[C@]3(C(=O)Nc4ccccc43)[C@@H]2C(=O)N1c1ccc(F)cc1 | inactive: 1.15% |
| COC(=O)c1ccc(-c2ncc(-c3cccc4ccccc34)o2)cc1 | inactive: -4.15% |
| O=C(Nc1ccccc1C(=O)N1CCCCCC1)c1ccccc1Cl | inactive: -8.31% |
| CCCNCC(O)COc1ccccc1C(=O)CCc1ccccc1 (stereo unspecified) | inactive: 17.1% |
| CC12CCC(C(=O)NCc3ccccn3)(OC1=O)C2(C)C (stereo unspecified) | inactive: -7.18% |
| O=[N+]([O-])c1cccc2cn[nH]c12 | inactive: 4.4% |
| CN1CCc2c(n(CC(O)CN(CCO)CCO)c3ccccc23)C1=O (stereo unspecified) | inactive: 11.3% |
| CSCCC(NC(=O)/C(=C/c1ccc2c(c1)OCO2)NC(=O)c1cccc([N+](=O)[O-])c1)C(=O)O (stereo unspecified) | inactive: -0.767% |
| CCOC(=O)C1C(=O)CC(C)(O)C(C(=O)OCC)C1/C=C/c1ccccc1 (stereo unspecified) | inactive: -0.446% |
| CCc1cn([C@H]2C[C@H](O)[C@@H](CO)O2)c(=O)[nH]c1=O | inactive: -4.5% |
| CC(C)c1ccc(NC(=O)CNS(=O)(=O)c2ccc(F)cc2)cc1 | inactive: 3.93% |
| Oc1ccccc1OCCOc1ccccc1OCCOc1ccccc1O | inactive: 20% |
| CCOCC(=O)Nc1nc2ccccc2s1 | inactive: 1.68% |
| O=c1[nH]c(=O)n(C2CCCO2)cc1F (stereo unspecified) | inactive: -3.21% |
| CC(NCCC(c1ccccc1)c1ccccc1)c1ccccc1 (stereo unspecified) | inactive: 15.4% |
